Laboratory results from publication doi:10.1101/2025.11.07.687187.
No constants are given. Whether binding was seen depends on the method and setting. Binding seen in cells or lysates may run through a third protein. These calls come from enrichment with a bait or labelling near it, and not all partners need be listed.

Protein sequences, listed by entry. Tags and fused reporters are not part of them.
UniProt Q9NX04: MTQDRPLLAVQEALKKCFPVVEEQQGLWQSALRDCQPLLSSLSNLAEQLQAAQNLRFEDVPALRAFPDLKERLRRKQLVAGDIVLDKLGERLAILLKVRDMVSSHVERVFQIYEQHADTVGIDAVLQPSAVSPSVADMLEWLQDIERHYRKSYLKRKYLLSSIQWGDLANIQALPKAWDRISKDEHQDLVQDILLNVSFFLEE

Key:
[1] = target: T1, SPATA5 (human (endogenous in HCT116)) (UniProt Q8NB90); assay: affinity purification with mass spectrometry
T1 sequence: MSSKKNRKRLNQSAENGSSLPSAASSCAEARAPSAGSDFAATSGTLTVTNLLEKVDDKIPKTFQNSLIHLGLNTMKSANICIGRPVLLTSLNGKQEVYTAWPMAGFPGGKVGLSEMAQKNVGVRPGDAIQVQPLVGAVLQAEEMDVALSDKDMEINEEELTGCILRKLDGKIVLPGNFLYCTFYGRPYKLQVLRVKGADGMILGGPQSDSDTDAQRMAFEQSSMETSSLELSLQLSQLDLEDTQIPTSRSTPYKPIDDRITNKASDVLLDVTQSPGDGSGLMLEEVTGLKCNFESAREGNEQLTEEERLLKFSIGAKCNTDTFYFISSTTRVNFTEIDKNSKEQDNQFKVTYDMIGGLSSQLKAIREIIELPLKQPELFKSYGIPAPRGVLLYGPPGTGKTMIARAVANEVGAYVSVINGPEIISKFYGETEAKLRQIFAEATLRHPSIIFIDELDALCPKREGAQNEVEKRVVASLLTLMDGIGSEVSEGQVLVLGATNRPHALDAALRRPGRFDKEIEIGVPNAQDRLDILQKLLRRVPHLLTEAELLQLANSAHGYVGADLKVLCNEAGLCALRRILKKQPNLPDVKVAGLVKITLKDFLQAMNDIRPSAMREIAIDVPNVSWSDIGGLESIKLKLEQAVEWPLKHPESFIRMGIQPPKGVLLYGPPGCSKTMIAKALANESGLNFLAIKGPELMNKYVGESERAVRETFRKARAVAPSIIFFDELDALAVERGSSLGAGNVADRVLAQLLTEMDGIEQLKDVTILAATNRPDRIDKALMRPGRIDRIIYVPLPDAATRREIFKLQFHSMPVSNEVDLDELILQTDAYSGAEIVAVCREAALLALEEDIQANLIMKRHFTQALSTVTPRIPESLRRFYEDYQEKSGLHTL

[2] = target: T2, SPATA5L1 (human (endogenous in HCT116)) (UniProt Q9BVQ7); assay: affinity purification with mass spectrometry
T2 sequence: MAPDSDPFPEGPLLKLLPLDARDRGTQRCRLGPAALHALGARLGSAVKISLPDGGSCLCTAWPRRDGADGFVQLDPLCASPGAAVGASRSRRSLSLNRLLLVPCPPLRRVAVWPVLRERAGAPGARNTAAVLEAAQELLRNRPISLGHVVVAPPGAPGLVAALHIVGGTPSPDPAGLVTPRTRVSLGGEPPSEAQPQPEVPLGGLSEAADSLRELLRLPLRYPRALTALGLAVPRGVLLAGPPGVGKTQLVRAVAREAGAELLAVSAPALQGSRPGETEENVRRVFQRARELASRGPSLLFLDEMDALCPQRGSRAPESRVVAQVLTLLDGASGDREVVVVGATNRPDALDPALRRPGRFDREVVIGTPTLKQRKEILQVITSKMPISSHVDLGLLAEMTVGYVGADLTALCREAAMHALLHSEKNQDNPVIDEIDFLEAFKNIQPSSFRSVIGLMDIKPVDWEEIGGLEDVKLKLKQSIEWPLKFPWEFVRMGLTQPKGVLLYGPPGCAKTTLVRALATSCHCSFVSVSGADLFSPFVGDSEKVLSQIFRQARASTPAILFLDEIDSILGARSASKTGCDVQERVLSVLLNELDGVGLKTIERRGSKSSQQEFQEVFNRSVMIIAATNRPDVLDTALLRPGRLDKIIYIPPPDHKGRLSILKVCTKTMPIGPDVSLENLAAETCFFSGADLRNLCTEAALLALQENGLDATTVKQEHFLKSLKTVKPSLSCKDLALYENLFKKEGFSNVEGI

binding [1]: binds
binding [2]: binds
Substance: C1ORF109 (from UniProt Q9NX04 1-203)
